Test results published in PubChem BioAssay AID493014 (National Center for Advancing Translational Sciences (NCATS), 2011).
The list shows a part of the results. These are further read-outs of the screen, such as a control signal, another cell line or another target. No call is given for them. The list favours compounds with an active or inconclusive main result. Potencies come from curve fits of mixed quality, noted in brackets.

Assay: qHTS Assay to Find Inhibitors of Chronic Active B-Cell Receptor Signaling
Details: ABC-DLBCL IkBa-CBG/CBR reporter, luminescence ratio (green luciferase fused to IkBa over red control in TMD8 lymphoma cells), 4 h
Outline: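 TMD8 ABC-DLBCL cells carrying doxycycline-inducible green luciferase fused to IkappaBalpha plus unfused red luciferase were exposed to compounds (up to 46 uM) for 4 hrs at 37C. Activity came from the overlap-corrected green/red luminescence ratio.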

[1] = measured here: CBR red luminescence, cell number
[2] = measured here: IkBa-CBG green luminescence

| Structure (SMILES) | AC50 [1] | AC50 [2] |
| --- | --- | --- |
| CC1(C)CC(=O)c2sc(NC(=O)c3ccccc3)nc2C1 | 2.24 µM [falling, full curve, poor fit] | – |
| COC(=O)C1=C(C)NC(C)=C(C(=O)OCCN(C)Cc2ccccc2)C1c1cccc([N+](=O)[O-])c1 (centres undefined) | 1.03 µM [rising, partial curve, poor fit] | – |
| CC(C)NC(=O)c1onc(CSc2ccccc2F)c1C(=O)O | 11.2 µM [falling, partial curve] | – |
| N#CCC(=O)N/N=C/c1cn(Cc2ccc3ccccc3c2)c2ccccc12 | 0.316 µM [rising, partial curve, poor fit] | – |
| O=C(NN=C1CCCCCC1)C(=O)Nc1cccc(Br)c1 | 18.4 µM [falling, single point] | – |
| Cc1nc2ncccn2c1-c1csc(Nc2ccc(N(C)C)cc2)n1 | 3.55 µM [rising, partial curve] | 8.91 µM [falling, partial curve] |
| CCCCNc1ncnc2c1cnn2-c1ccccc1 | 10 µM [falling, partial curve] | – |
| COc1ccc(C(=O)N2CCCC(Nc3ccc(F)c(F)c3)C2)c(OC)n1 (centres undefined) | 0.316 µM [rising, full curve, poor fit] | – |
| Cc1ccc(Cl)cc1NC(=O)COC(=O)C1CCCCC1 | 29.1 µM [rising, single point] | – |
| OCC1(CO)COC(/C=C/c2ccccc2)=N1 | 35.5 µM [falling, single point] | – |
| Cc1c(Br)c(C(=O)N2CCc3ccccc32)nn1C | 2.59 µM [rising, full curve, poor fit] | – |
| CC(=O)Nc1sc(NC(=O)c2ccc(C)cc2)nc1-c1cccs1 | 2.59 µM [falling, full curve] | 3.26 µM [rising, full curve, poor fit] |
| COCc1ccc(CN2CCCC(C(=O)Nc3ccccc3-c3ccc(OC)cc3)C2)o1 (centres undefined) | 14.1 µM [falling, partial curve, poor fit] | – |
| O=C(CCc1ccccc1)NNC(=O)c1ccc(Br)cc1 | 22.4 µM [rising, partial curve, poor fit] | – |
| Cc1ccc(S(=O)(=O)N(C)c2ccc(OCC(=O)Nc3cccc(-n4cnnn4)c3C)cc2)cc1 | 22.4 µM [rising, single point] | – |
| COc1ccc(NS(=O)(=O)c2ccc3c(c2)Cc2ccccc2-3)cn1 | 14.1 µM [falling, single point] | – |
| Cc1cc(C(=O)CN2c3cccc4cccc(c34)S2(=O)=O)c(C)n1C | 29.1 µM [rising, single point] | 20.6 µM [falling, single point] |
| Cc1ccc(C)c(N2CCN(S(=O)(=O)CC34CCC(CC3=O)C4(C)C)CC2)c1 (centres undefined) | 35.5 µM [rising, single point] | – |
| COc1cc2c3nnc(-c4ccccc4)c-3cn(Cc3ccccc3F)c2cc1OC | 6.31 µM [rising, single point] | – |
| O=C(c1ccccc1)c1c[nH]c(C(=O)NCc2cccnc2)c1 | 20 µM [falling, single point] | – |
| Oc1ccc(Br)cc1/C=N/n1cnc2ccccc21 | 2.51 µM [rising, partial curve, poor fit] | – |
| O=C(CC1C(=O)Nc2ccccc2N1CC(=O)N1CCCC1)Nc1ccc(Br)cc1 (centres undefined) | 20.6 µM [falling, partial curve] | – |

| Structure (SMILES) | AC50 [1] | AC50 [2] |
| --- | --- | --- |
| Cn1c(=O)c2c(nc(N/N=C3\CCCc4ccccc43)n2Cc2ccc(F)cc2)n(C)c1=O | 20.6 µM [falling, partial curve, poor fit] | – |
| Cc1cc(C)nc(Nc2ccc(C(=O)O)cc2)n1 | 1.64 µM [falling, full curve] | – |
| CCCCC(=O)Nc1nnc(CCOC)s1 | 35.5 µM [falling, single point] | – |
| CCCCCCS(=O)Cc1ccccc1 (centres undefined) | 0.731 µM [rising, full curve, poor fit] | – |
| CN1CCN(C(=O)CCC(=O)c2ccc(F)cc2)CC1 | 32.6 µM [rising, single point] | – |
| c1ccc(C2=Nn3c(nnc3-c3n[nH]c4c3CCC4)SC2)cc1 | – | 11.2 µM [falling, partial curve] |
| Cc1c(C(=O)N/N=C/c2cccnc2)sc(N)c1C#N | 15.8 µM [falling, partial curve] | – |
| CCN1/C(=C\C(=S)Nc2ccccc2)Sc2ccccc21 | 14.1 µM [falling, partial curve] | – |
| CCOC(=O)C1CCCN(C(=O)c2sc3nc(-c4ccc(F)cc4)cn3c2C)C1 (centres undefined) | 4.47 µM [falling, partial curve, poor fit] | – |
| CCC(Sc1nc2cc(OC)c(OC)cc2c(=O)n1CCc1ccc(S(N)(=O)=O)cc1)C(=O)NCCOC (centres undefined) | 3.55 µM [rising, single point] | – |
| Nc1nc(CCl)nc(Nc2ccccc2)n1 | 3.98 µM [falling, partial curve, poor fit] | – |
| c1cncc(Nc2nc(-c3cccs3)cs2)c1 | 14.6 µM [rising, single point] | – |
| CCN(CC)S(=O)(=O)c1cc(NC(=O)COC(=O)CCC(=O)c2ccc(F)cc2)ccc1C | 6.51 µM [rising, single point] | – |
| Cc1ccc(S(=O)(=O)N2CCOCC2)cc1NC(=O)COC(=O)CSc1ccc(Br)cc1C | – | 32.6 µM [rising, partial curve, poor fit] |
| CC1CCCN(C(=O)CCc2ccccc2)C1 (centres undefined) | 4.11 µM [rising, partial curve, poor fit] | – |
| O=C(O)C1CC=CCC1C(=O)Nc1ccccc1 (centres undefined) | 6.51 µM [falling, single point] | – |
| COc1ccc2cc(CCNC(=O)c3ccc(Br)o3)c(=O)[nH]c2c1 | 0.00411 µM [rising, full curve, poor fit] | – |
| O=C(O)CSc1nnc(NC(=O)c2ccc3c(c2)OCO3)s1 | 10 µM [falling, partial curve] | – |
| CCOc1cccc(/C=C/c2ccc3cccc(O)c3n2)c1O | 25.1 µM [rising, single point] | 17.8 µM [falling, single point] |
| Cc1ccc(OCC(=O)Nc2ccc3c(c2)OC(F)(F)O3)c([N+](=O)[O-])n1 | 0.366 µM [rising, full curve, poor fit] | – |
| C/C(=N\O)C(C)(C)Nc1ccccc1F | 5.01 µM [rising, partial curve, poor fit] | – |
| Cc1cc(C)cc(OCC(O)CN2CCN(C(=O)c3ccco3)CC2)c1 (centres undefined) | 5.62 µM [rising, partial curve, poor fit] | – |

| Structure (SMILES) | AC50 [1] | AC50 [2] |
| --- | --- | --- |
| O=C(C1Cc2ccccc2CN1C(=O)c1ccccc1)N1CCN(c2ccccc2)CC1 (centres undefined) | 15.8 µM [falling, single point] | – |
| O=C(CSc1ccc(-c2ccccn2)nn1)c1ccccc1 | 35.5 µM [falling, single point] | – |
| O=C(NC(=S)Nc1ccccc1N1CCCC1)c1ccccc1Br | 0.891 µM [rising, full curve] | – |
| O=C1C=C(N2CCOCC2)c2ccccc2C1=O | 6.31 µM [falling, partial curve] | – |
| Cc1ccc(CNc2nc3ccccc3n3nnnc23)cc1 | 9.2 µM [falling, partial curve] | – |
| NS(=O)(=O)c1cc(C(=O)Nc2ccc3c(c2)OCCCO3)ccc1Cl | 3.98 µM [falling, partial curve, poor fit] | – |
| CN(C)CCOCCOc1ccc(Cl)cc1C(C)(C)C | 35.5 µM [falling, single point] | – |
| O=C(Nc1ccc2c(c1)OCCO2)C1CCCN1S(=O)(=O)c1cccc2cccnc12 (centres undefined) | 8.2 µM [rising, partial curve, poor fit] | – |
| Cc1ccccc1-n1c(=O)cc(N2CCc3ccccc3C2)[nH]c1=O | 6.51 µM [rising, single point] | – |
| CCC1=NN(C(=O)c2cccc(Br)c2)C(O)(c2ccc(Br)cc2)C1 (centres undefined) | 7.31 µM [falling, partial curve] | – |
| CC(/C=C/c1ccco1)=N\NC(=O)c1cc(Cl)ccc1O | 1.26 µM [falling, full curve, poor fit] | – |
| O=C(Nc1ccc(Cl)cc1Cl)c1cc2ccccc2o1 | 0.1 µM [rising, full curve, poor fit] | – |
| COc1cccc(NC(=O)Nc2ccccc2Br)c1 | 3.16 µM [falling, partial curve, poor fit] | – |
| Cc1cc(OCC(=O)NCc2nc(-c3ccccc3)no2)c(C)cc1Br | 10 µM [rising, partial curve, poor fit] | – |
| Cc1n[nH]c(=S)n1/N=C/c1ccccc1OCc1ccc(Cl)cc1 | 2.51 µM [rising, full curve] | – |
| CC1=NCCN1CCNC(=O)Nc1ccc(F)cc1 | 0.112 µM [falling, full curve, poor fit] | – |
| O=C(CN1CCN(Cc2ccccc2)CC1)Nc1cccc(S(=O)(=O)N2CCCCCC2)c1 | 10 µM [falling, partial curve, poor fit] | – |
| CCC(=O)NC(Nc1nc2ccc(C)cc2s1)(C(=O)OC)C(F)(F)F (centres undefined) | 29.1 µM [rising, single point] | – |
| COC(=O)C1CCN(C(=O)COC(=O)c2cc([N+](=O)[O-])ccc2N2CCOCC2)CC1 | 11.6 µM [rising, partial curve, poor fit] | – |
| COc1ccc(OC)c(-c2cnc(OC(C)(C)C)nc2OC(C)(C)C)c1 | 18.4 µM [rising, partial curve] | 18.4 µM [falling, partial curve, poor fit] |

Some of the entries above, set out differently:
Structure (SMILES) | AC50 [1] | AC50 [2]
O=C(C1Cc2ccccc2CN1C(=O)c1ccccc1)N1CCN(c2ccccc2)CC1 (centres undefined) | 15.8 µM [falling, single point] | –
O=C(CSc1ccc(-c2ccccn2)nn1)c1ccccc1 | 35.5 µM [falling, single point] | –
O=C(NC(=S)Nc1ccccc1N1CCCC1)c1ccccc1Br | 0.891 µM [rising, full curve] | –
O=C1C=C(N2CCOCC2)c2ccccc2C1=O | 6.31 µM [falling, partial curve] | –
Cc1ccc(CNc2nc3ccccc3n3nnnc23)cc1 | 9.2 µM [falling, partial curve] | –
NS(=O)(=O)c1cc(C(=O)Nc2ccc3c(c2)OCCCO3)ccc1Cl | 3.98 µM [falling, partial curve, poor fit] | –
CN(C)CCOCCOc1ccc(Cl)cc1C(C)(C)C | 35.5 µM [falling, single point] | –
O=C(Nc1ccc2c(c1)OCCO2)C1CCCN1S(=O)(=O)c1cccc2cccnc12 (centres undefined) | 8.2 µM [rising, partial curve, poor fit] | –
Cc1ccccc1-n1c(=O)cc(N2CCc3ccccc3C2)[nH]c1=O | 6.51 µM [rising, single point] | –
CCC1=NN(C(=O)c2cccc(Br)c2)C(O)(c2ccc(Br)cc2)C1 (centres undefined) | 7.31 µM [falling, partial curve] | –
CC(/C=C/c1ccco1)=N\NC(=O)c1cc(Cl)ccc1O | 1.26 µM [falling, full curve, poor fit] | –
O=C(Nc1ccc(Cl)cc1Cl)c1cc2ccccc2o1 | 0.1 µM [rising, full curve, poor fit] | –
COc1cccc(NC(=O)Nc2ccccc2Br)c1 | 3.16 µM [falling, partial curve, poor fit] | –
Cc1cc(OCC(=O)NCc2nc(-c3ccccc3)no2)c(C)cc1Br | 10 µM [rising, partial curve, poor fit] | –
